# Measurements reported in the supplement of paper PMC11438910.
# This is one part of the list. The signal is at background level for most entries.
# Key:
# Test in all cases: fluorescence intensity of antibody binding to polysaccharide-coupled beads; higher = stronger binding
# [1] = target: pneumococcal polysaccharide Pn18A
# [2] = target: pneumococcal polysaccharide Pn18B
# [3] = target: pneumococcal polysaccharide Pn18C
# [4] = target: pneumococcal polysaccharide Pn18F
# [5] = target: pneumococcal polysaccharide Pn19A
# [6] = target: pneumococcal polysaccharide Pn19B
# [7] = target: pneumococcal polysaccharide Pn19C
# [8] = target: pneumococcal polysaccharide Pn19F
# [9] = target: pneumococcal polysaccharide Pn2
# [10] = target: pneumococcal polysaccharide Pn20A
# [11] = target: pneumococcal polysaccharide Pn20B
# [12] = target: pneumococcal polysaccharide Pn21
# [13] = target: pneumococcal polysaccharide Pn22A
# [14] = target: pneumococcal polysaccharide Pn22F
# [15] = target: pneumococcal polysaccharide Pn23A
# [16] = target: pneumococcal polysaccharide Pn23B
# [17] = target: pneumococcal polysaccharide Pn23F
# [18] = target: pneumococcal polysaccharide Pn24A
# [19] = target: pneumococcal polysaccharide Pn24B
# [20] = target: pneumococcal polysaccharide Pn24F
# [21] = target: pneumococcal polysaccharide Pn25A
# [22] = target: pneumococcal polysaccharide Pn25F
# [23] = target: pneumococcal polysaccharide Pn27
# [24] = target: pneumococcal polysaccharide Pn28A
# [25] = target: pneumococcal polysaccharide Pn28F
# [26] = target: pneumococcal polysaccharide Pn29
# [27] = target: pneumococcal polysaccharide Pn3
# [28] = antibody concentration 437.17 ng/mL
# [29] = antibody concentration 2337.65 ng/mL
# [30] = antibody concentration 0.1 ng/mL
# [31] = antibody concentration 0.534724 ng/mL
# [32] = antibody concentration 2.8593 ng/mL
# [33] = antibody concentration 15.2894 ng/mL
# [34] = antibody concentration 81.7561 ng/mL
binder,measurement,setting,value
3S41.1 (protein) chain 1: EVQLVESGGGLVQPGGSLRLSCATSGFTFRNYWMYWFRQAPGKGLDWVSSISDSSSNTFYSDSVKGRFTISRDNAKNTLYLQMNSLRAEDTAVYYCARRPIAAATGVYWYFDLWGPGTPITVSS chain 2: EIVMTQSPATLSLSPGERATLSCRASQNIGSNLAWYQQKPGRAPKLLIYDASSRATGIPDRFSASGSGTDFTLTISSLEPEDVGVYYCQQYNNWKIFGPGTKLEIK,fluorescence intensity,[1]; [28],23.5 MFI
same,fluorescence intensity,[1]; [29],25 MFI
same,fluorescence intensity,[2]; [30],29.2 MFI
same,fluorescence intensity,[2]; [31],30.5 MFI
same,fluorescence intensity,[2]; [32],29.5 MFI
same,fluorescence intensity,[2]; [33],32 MFI
same,fluorescence intensity,[2]; [34],31 MFI
same,fluorescence intensity,[2]; [28],30.2 MFI
same,fluorescence intensity,[2]; [29],33 MFI
same,fluorescence intensity,[3]; [30],18.5 MFI
same,fluorescence intensity,[3]; [31],19.5 MFI
same,fluorescence intensity,[3]; [32],17.5 MFI
same,fluorescence intensity,[3]; [33],18.5 MFI
same,fluorescence intensity,[3]; [34],19.5 MFI
same,fluorescence intensity,[3]; [28],20 MFI
same,fluorescence intensity,[3]; [29],23 MFI
same,fluorescence intensity,[4]; [30],23.8 MFI
same,fluorescence intensity,[4]; [31],23.5 MFI
same,fluorescence intensity,[4]; [32],22.5 MFI
same,fluorescence intensity,[4]; [33],23 MFI
same,fluorescence intensity,[4]; [34],23.2 MFI
same,fluorescence intensity,[4]; [28],24.2 MFI
same,fluorescence intensity,[4]; [29],28 MFI
same,fluorescence intensity,[5]; [30],18 MFI
same,fluorescence intensity,[5]; [31],18 MFI
same,fluorescence intensity,[5]; [32],18 MFI
same,fluorescence intensity,[5]; [33],18.2 MFI
same,fluorescence intensity,[5]; [34],18 MFI
same,fluorescence intensity,[5]; [28],17 MFI
same,fluorescence intensity,[5]; [29],21 MFI
same,fluorescence intensity,[6]; [30],29.8 MFI
same,fluorescence intensity,[6]; [31],30 MFI
same,fluorescence intensity,[6]; [32],27.5 MFI
same,fluorescence intensity,[6]; [33],27 MFI
same,fluorescence intensity,[6]; [34],28 MFI
same,fluorescence intensity,[6]; [28],30.8 MFI
same,fluorescence intensity,[6]; [29],36 MFI
same,fluorescence intensity,[7]; [30],25 MFI
same,fluorescence intensity,[7]; [31],24.8 MFI
same,fluorescence intensity,[7]; [32],26.2 MFI
same,fluorescence intensity,[7]; [33],25 MFI
same,fluorescence intensity,[7]; [34],25 MFI
same,fluorescence intensity,[7]; [28],26.5 MFI
same,fluorescence intensity,[7]; [29],31 MFI
same,fluorescence intensity,[8]; [30],25 MFI
same,fluorescence intensity,[8]; [31],25 MFI
same,fluorescence intensity,[8]; [32],25.8 MFI
same,fluorescence intensity,[8]; [33],25.5 MFI
same,fluorescence intensity,[8]; [34],24.2 MFI
same,fluorescence intensity,[8]; [28],26 MFI
same,fluorescence intensity,[8]; [29],29.8 MFI
same,fluorescence intensity,[9]; [30],18.8 MFI
same,fluorescence intensity,[9]; [31],20 MFI
same,fluorescence intensity,[9]; [32],20.5 MFI
same,fluorescence intensity,[9]; [33],18.8 MFI
same,fluorescence intensity,[9]; [34],19.5 MFI
same,fluorescence intensity,[9]; [28],21.5 MFI
same,fluorescence intensity,[9]; [29],23.5 MFI
same,fluorescence intensity,[10]; [30],23 MFI
same,fluorescence intensity,[10]; [31],22 MFI
same,fluorescence intensity,[10]; [32],23 MFI
same,fluorescence intensity,[10]; [33],22.5 MFI
same,fluorescence intensity,[10]; [34],23.8 MFI
same,fluorescence intensity,[10]; [28],22 MFI
same,fluorescence intensity,[10]; [29],28 MFI
same,fluorescence intensity,[11]; [30],23.8 MFI
same,fluorescence intensity,[11]; [31],24 MFI
same,fluorescence intensity,[11]; [32],23.5 MFI
same,fluorescence intensity,[11]; [33],23 MFI
same,fluorescence intensity,[11]; [34],23 MFI
same,fluorescence intensity,[11]; [28],23 MFI
same,fluorescence intensity,[11]; [29],26 MFI
same,fluorescence intensity,[12]; [30],20 MFI
same,fluorescence intensity,[12]; [31],19.5 MFI
same,fluorescence intensity,[12]; [32],18.8 MFI
same,fluorescence intensity,[12]; [33],19 MFI
same,fluorescence intensity,[12]; [34],20 MFI
same,fluorescence intensity,[12]; [28],19 MFI
same,fluorescence intensity,[12]; [29],20.5 MFI
same,fluorescence intensity,[13]; [30],22.2 MFI
same,fluorescence intensity,[13]; [31],20.8 MFI
same,fluorescence intensity,[13]; [32],22.8 MFI
same,fluorescence intensity,[13]; [33],22.2 MFI
same,fluorescence intensity,[13]; [34],23 MFI
same,fluorescence intensity,[13]; [28],22 MFI
same,fluorescence intensity,[13]; [29],25.5 MFI
same,fluorescence intensity,[14]; [30],32.8 MFI
same,fluorescence intensity,[14]; [31],30.5 MFI
same,fluorescence intensity,[14]; [32],29.8 MFI
same,fluorescence intensity,[14]; [33],31 MFI
same,fluorescence intensity,[14]; [34],32.8 MFI
same,fluorescence intensity,[14]; [28],30.8 MFI
same,fluorescence intensity,[14]; [29],33 MFI
same,fluorescence intensity,[15]; [30],25.5 MFI
same,fluorescence intensity,[15]; [31],25 MFI
same,fluorescence intensity,[15]; [32],26.2 MFI
same,fluorescence intensity,[15]; [33],25.5 MFI
same,fluorescence intensity,[15]; [34],28 MFI
same,fluorescence intensity,[15]; [28],27.5 MFI
same,fluorescence intensity,[15]; [29],37.5 MFI
same,fluorescence intensity,[16]; [30],29.2 MFI
same,fluorescence intensity,[16]; [31],29.5 MFI
same,fluorescence intensity,[16]; [32],29 MFI
same,fluorescence intensity,[16]; [33],33.8 MFI
same,fluorescence intensity,[16]; [34],28.5 MFI
same,fluorescence intensity,[16]; [28],32 MFI
same,fluorescence intensity,[16]; [29],32.5 MFI
same,fluorescence intensity,[17]; [30],18 MFI
same,fluorescence intensity,[17]; [31],18.2 MFI
same,fluorescence intensity,[17]; [32],18 MFI
same,fluorescence intensity,[17]; [33],20 MFI
same,fluorescence intensity,[17]; [34],18.5 MFI
same,fluorescence intensity,[17]; [28],19 MFI
same,fluorescence intensity,[17]; [29],23 MFI
same,fluorescence intensity,[18]; [30],15 MFI
same,fluorescence intensity,[18]; [31],16.5 MFI
same,fluorescence intensity,[18]; [32],15 MFI
same,fluorescence intensity,[18]; [33],16 MFI
same,fluorescence intensity,[18]; [34],16 MFI
same,fluorescence intensity,[18]; [28],16 MFI
same,fluorescence intensity,[18]; [29],18 MFI
same,fluorescence intensity,[19]; [30],18 MFI
same,fluorescence intensity,[19]; [31],17.5 MFI
same,fluorescence intensity,[19]; [32],17 MFI
same,fluorescence intensity,[19]; [33],19 MFI
same,fluorescence intensity,[19]; [34],17 MFI
same,fluorescence intensity,[19]; [28],19.2 MFI
same,fluorescence intensity,[19]; [29],22.5 MFI
same,fluorescence intensity,[20]; [30],18.5 MFI
same,fluorescence intensity,[20]; [31],18 MFI
same,fluorescence intensity,[20]; [32],15.2 MFI
same,fluorescence intensity,[20]; [33],15.2 MFI
same,fluorescence intensity,[20]; [34],18 MFI
same,fluorescence intensity,[20]; [28],18.2 MFI
same,fluorescence intensity,[20]; [29],22 MFI
same,fluorescence intensity,[21]; [30],26 MFI
same,fluorescence intensity,[21]; [31],25.5 MFI
same,fluorescence intensity,[21]; [32],23.2 MFI
same,fluorescence intensity,[21]; [33],25.5 MFI
same,fluorescence intensity,[21]; [34],24.5 MFI
same,fluorescence intensity,[21]; [28],25.8 MFI
same,fluorescence intensity,[21]; [29],29 MFI
same,fluorescence intensity,[22]; [30],31.8 MFI
same,fluorescence intensity,[22]; [31],31.5 MFI
same,fluorescence intensity,[22]; [32],32.5 MFI
same,fluorescence intensity,[22]; [33],31.5 MFI
same,fluorescence intensity,[22]; [34],29.5 MFI
same,fluorescence intensity,[22]; [28],29 MFI
same,fluorescence intensity,[22]; [29],33.8 MFI
same,fluorescence intensity,[23]; [30],17.2 MFI
same,fluorescence intensity,[23]; [31],17.5 MFI
same,fluorescence intensity,[23]; [32],16.5 MFI
same,fluorescence intensity,[23]; [33],17.5 MFI
same,fluorescence intensity,[23]; [34],17 MFI
same,fluorescence intensity,[23]; [28],18.5 MFI
same,fluorescence intensity,[23]; [29],27.5 MFI
same,fluorescence intensity,[24]; [30],27 MFI
same,fluorescence intensity,[24]; [31],27 MFI
same,fluorescence intensity,[24]; [32],27.2 MFI
same,fluorescence intensity,[24]; [33],26 MFI
same,fluorescence intensity,[24]; [34],28 MFI
same,fluorescence intensity,[24]; [28],25.8 MFI
same,fluorescence intensity,[24]; [29],29.5 MFI
same,fluorescence intensity,[25]; [30],28.8 MFI
same,fluorescence intensity,[25]; [31],30 MFI
same,fluorescence intensity,[25]; [32],30 MFI
same,fluorescence intensity,[25]; [33],28.2 MFI
same,fluorescence intensity,[25]; [34],28.5 MFI
same,fluorescence intensity,[25]; [28],29.5 MFI
same,fluorescence intensity,[25]; [29],32.5 MFI
same,fluorescence intensity,[26]; [30],15 MFI
same,fluorescence intensity,[26]; [31],17 MFI
same,fluorescence intensity,[26]; [32],16.8 MFI
same,fluorescence intensity,[26]; [33],16 MFI
same,fluorescence intensity,[26]; [34],17.5 MFI
same,fluorescence intensity,[26]; [28],17 MFI
same,fluorescence intensity,[26]; [29],21.5 MFI
same,fluorescence intensity,[27]; [30],14 MFI
same,fluorescence intensity,[27]; [31],13.8 MFI
same,fluorescence intensity,[27]; [32],14.8 MFI

# A stretch of the results above, for reference:
binder,measurement,setting,value
3S41.1 (protein) chain 1: EVQLVESGGGLVQPGGSLRLSCATSGFTFRNYWMYWFRQAPGKGLDWVSSISDSSSNTFYSDSVKGRFTISRDNAKNTLYLQMNSLRAEDTAVYYCARRPIAAATGVYWYFDLWGPGTPITVSS chain 2: EIVMTQSPATLSLSPGERATLSCRASQNIGSNLAWYQQKPGRAPKLLIYDASSRATGIPDRFSASGSGTDFTLTISSLEPEDVGVYYCQQYNNWKIFGPGTKLEIK,fluorescence intensity,[9]; [29],23.5 MFI
same,fluorescence intensity,[10]; [30],23 MFI
same,fluorescence intensity,[10]; [31],22 MFI
same,fluorescence intensity,[10]; [32],23 MFI
same,fluorescence intensity,[10]; [33],22.5 MFI
same,fluorescence intensity,[10]; [34],23.8 MFI

# An excerpt of these results, bar-delimited.
binder | measurement | setting | value
3S41.1 (protein) chain 1: EVQLVESGGGLVQPGGSLRLSCATSGFTFRNYWMYWFRQAPGKGLDWVSSISDSSSNTFYSDSVKGRFTISRDNAKNTLYLQMNSLRAEDTAVYYCARRPIAAATGVYWYFDLWGPGTPITVSS chain 2: EIVMTQSPATLSLSPGERATLSCRASQNIGSNLAWYQQKPGRAPKLLIYDASSRATGIPDRFSASGSGTDFTLTISSLEPEDVGVYYCQQYNNWKIFGPGTKLEIK | fluorescence intensity | [6]; [33] | 27 MFI
same | fluorescence intensity | [6]; [34] | 28 MFI
same | fluorescence intensity | [6]; [28] | 30.8 MFI
